# Experimental data from PMC11077360.
# Amino acid sequences for entries named in this document (tags omitted).
# UniProt Q15388: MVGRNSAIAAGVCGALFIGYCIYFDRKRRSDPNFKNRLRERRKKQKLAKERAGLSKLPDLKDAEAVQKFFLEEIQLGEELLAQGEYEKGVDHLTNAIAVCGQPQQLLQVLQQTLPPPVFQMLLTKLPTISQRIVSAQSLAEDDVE
# These are yes or no findings as the source states them, for the method shown. Binding seen in cells or lysates may run through a third protein. Tags and fused reporters may be left off the sequences shown.
# Target: T1, FLAG-tagged MTUS1/ATIP1 (human) (UniProt Q9ULD2)
# T1 sequence: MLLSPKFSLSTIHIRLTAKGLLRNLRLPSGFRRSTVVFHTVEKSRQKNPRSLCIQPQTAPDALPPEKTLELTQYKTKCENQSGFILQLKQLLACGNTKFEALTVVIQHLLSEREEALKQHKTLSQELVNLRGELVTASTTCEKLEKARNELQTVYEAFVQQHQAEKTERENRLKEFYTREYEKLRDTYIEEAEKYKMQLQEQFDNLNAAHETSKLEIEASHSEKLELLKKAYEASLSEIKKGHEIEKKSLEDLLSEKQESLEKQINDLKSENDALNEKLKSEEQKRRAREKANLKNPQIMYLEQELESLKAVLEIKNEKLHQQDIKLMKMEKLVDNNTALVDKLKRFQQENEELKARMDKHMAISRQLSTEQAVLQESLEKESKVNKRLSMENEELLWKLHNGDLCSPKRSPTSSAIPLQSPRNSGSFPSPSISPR
# Test: co-IP; lysates (IP buffer) of HNSCC cells transduced with lentivirus containing ATIP1-Flag; immunoprecipitation with an antibody against Flag or control IgG, Dynabeads Coimmunoprecipitation Kit; western blotting for MFN2 or TOMM20
substance,measurement,value
TOMM20 (from UniProt Q15388 1-145),binding,no binding
